Source: the supplement of paper PMC12823440, “Inhibitors supercharge kinase turnover through native proteolytic circuits” (Nature, 2025)
Counter-ions that a name gives are not always drawn. The list shows a part of the results. Hit calls seldom repeat between salt and free forms of one compound.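 In K562 cells expressing nanoluciferase-fused kinases, luminescence was recorded at 4 h intervals between 2 and 18 h, normalized as percent of control with DMSO at 100% and a positive control at 0%. A significant (2 sigma) signal drop marks a time point as decreased. The authors' rule for a hit is not shown and takes in more than the number of time points.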

Amino acid sequences for entries named in this document (tags omitted). A change or cut given only in a name is not applied to a line headed by its entry.
UniProt Q08345: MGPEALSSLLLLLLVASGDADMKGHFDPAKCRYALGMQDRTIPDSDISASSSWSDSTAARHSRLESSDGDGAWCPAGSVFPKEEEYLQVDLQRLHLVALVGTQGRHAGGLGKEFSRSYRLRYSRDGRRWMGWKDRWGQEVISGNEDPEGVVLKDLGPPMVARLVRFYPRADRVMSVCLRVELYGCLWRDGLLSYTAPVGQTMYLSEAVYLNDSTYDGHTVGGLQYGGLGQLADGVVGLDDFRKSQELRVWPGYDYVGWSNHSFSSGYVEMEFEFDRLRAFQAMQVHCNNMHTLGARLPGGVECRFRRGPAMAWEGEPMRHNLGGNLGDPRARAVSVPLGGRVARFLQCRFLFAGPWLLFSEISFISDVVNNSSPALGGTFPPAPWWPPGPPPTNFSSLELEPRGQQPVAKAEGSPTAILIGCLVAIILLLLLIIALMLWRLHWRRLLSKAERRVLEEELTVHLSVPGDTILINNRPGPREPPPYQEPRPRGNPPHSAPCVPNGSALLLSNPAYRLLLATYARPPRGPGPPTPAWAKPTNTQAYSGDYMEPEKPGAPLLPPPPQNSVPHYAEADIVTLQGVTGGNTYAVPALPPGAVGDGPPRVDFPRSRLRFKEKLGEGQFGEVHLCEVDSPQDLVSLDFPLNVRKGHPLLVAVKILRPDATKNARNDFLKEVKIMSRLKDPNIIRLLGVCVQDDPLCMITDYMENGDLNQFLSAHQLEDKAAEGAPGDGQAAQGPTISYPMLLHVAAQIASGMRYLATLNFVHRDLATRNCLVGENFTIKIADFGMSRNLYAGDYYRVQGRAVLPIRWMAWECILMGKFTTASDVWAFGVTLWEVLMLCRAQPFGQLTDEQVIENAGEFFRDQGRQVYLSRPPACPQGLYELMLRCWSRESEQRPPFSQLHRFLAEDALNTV

Target: DDR1 (UniProt Q08345)
Test: kinase-Nluc reporter destabilization hit call (1 = scored as downregulated) (binary); higher = compound decreases kinase abundance
Settings: 10 µM; K562; 2-18 h

Compound | kinase-Nluc reporter destabilization hit call
CCS(=O)(=O)N1CCN(c2ccc(Nc3ncc(C(N)=O)c(NC4CC4)n3)cc2)CC1 [Cerdulatinib (hydrochloride)] | inactive: 0
C[C@@H](N)c1ccc(C(=O)Nc2ccnc3[nH]ccc23)cc1 | inactive: 0
COc1ncc(F)cc1CNc1ccc(Cc2c[nH]c3ncc(C)cc23)c(F)n1 | inactive: 0
CCS(=O)(=O)N1CC(CC#N)(n2cc(-c3ncnc4[nH]ccc34)cn2)C1 [Baricitinib (phosphate)] | inactive: 0
COC(=O)[C@H](CC(C)C)NC(=O)c1ccc(NC[C@@H](N)CS)cc1-c1cccc2ccccc12 [GGTI298 (Trifluoroacetate)] | inactive: 0
COCCOc1cc(F)c2c(Nc3ccc(NC(=O)Cn4cc(C(C)C)nn4)cc3)ncnc2c1 [AZD3229 Tosylate] | inactive: 0
CC(C)(C)n1nc(-c2cccc3ccccc23)c2c(N)ncnc21 [1-Naphthyl PP1] | inactive: 0
N#CCNC(=O)c1ccc(-c2ccnc(Nc3ccc(N4CCOCC4)cc3)n2)cc1 [Momelotinib sulfate] | inactive: 0
Cn1ncc(Cl)c1-c1cc(C(=O)N[C@H](CN)Cc2cccc(F)c2)sc1Cl [Afuresertib] | inactive: 0
CNC(=O)c1ccc(Nc2ncc(C(F)(F)F)c(NCc3nccnc3N(C)S(C)(=O)=O)n2)cc1 [Defactinib] | inactive: 0
O=C(O)c1ccc2c(c1)nc(Nc1cccc(Cl)c1)c1ccncc12 [Silmitasertib] | inactive: 0
O=C(Nc1cnn2ccc(N3CCC[C@@H]3c3cc(F)ccc3F)nc12)N1CC[C@H](O)C1 [Larotrectinib] | inactive: 0
COc1cc2nccc(Oc3ccc(NC(=O)C4(C(=O)Nc5ccc(F)cc5)CC4)cc3)c2cc1OC [Cabozantinib (S-malate)] | inactive: 0
CN(C)C(=N)NC(=N)N [Metformin (hydrochloride)] | inactive: 0
COc1ccnc(C[S+]([O-])c2nc3cc(-n4cccc4)ccc3[nH]2)c1C (stereo unspecified) [Ilaprazole (sodium)] | inactive: 0
C#Cc1cccc(Nc2ncnc3cc4c(cc23)OCCOCCOCCO4)c1 [Icotinib (Hydrochloride)] | inactive: 0
CC(C)NC[C@@H](C(=O)N1CCN(c2ncnc3c2[C@H](C)C[C@H]3O)CC1)c1ccc(Cl)cc1 [Ipatasertib] | inactive: 0
CC(=O)c1c(C)c2cnc(Nc3ccc(N4CCNCC4)cn3)nc2n(C2CCCC2)c1=O [Palbociclib (monohydrochloride)] | inactive: 0
C#Cc1cccc(Nc2ncnc3cc(OCCOC)c(OCCOC)cc23)c1 [Erlotinib] | inactive: 0
OCCn1cc(-c2cnc3nnn(Cc4ccc5ncccc5c4)c3n2)cn1 | inactive: 0
CCN(CC)CC(=O)Nc1c(C)cccc1C [Lidocaine] | inactive: 0
CCS(=O)(=O)N1CCN(c2ccc(Nc3ncc(C(N)=O)c(NC4CC4)n3)cc2)CC1 [Cerdulatinib] | active: 1
C#Cc1cccc(Nc2ncnc3cc(OCCOC)c(OCCOC)cc23)c1 [Erlotinib (Hydrochloride)] | inactive: 0
O=C(c1ccc(F)c(F)c1Nc1ccc(I)cc1F)N1CC(O)([C@@H]2CCCCN2)C1 [Cobimetinib] | inactive: 0
CC(C)(C)n1nc(-c2cccc3ccccc23)c2c(N)ncnc21 [1-Naphthyl PP1 (hydrochloride)] | inactive: 0
CC(=O)c1c(C)c2cnc(Nc3ccc(N4CCNCC4)cn3)nc2n(C2CCCC2)c1=O [Palbociclib (isethionate)] | inactive: 0

No new results follow: entries from further up.
Compound | kinase-Nluc reporter destabilization hit call
O=C(c1ccc(F)c(F)c1Nc1ccc(I)cc1F)N1CC(O)([C@@H]2CCCCN2)C1 [Cobimetinib] | inactive: 0
CC(C)(C)n1nc(-c2cccc3ccccc23)c2c(N)ncnc21 [1-Naphthyl PP1 (hydrochloride)] | inactive: 0
